Results: patent publication US12239729B2 (Soricimed Biopharma Inc., priority 2012, dated 2025)

Assay: peptide made by a vendor
Conditions: whole synthesis

EGKLSSNDTEGGLCKEFLHPSKVDLPR
purity (crude or final not stated): ˜77.7%

Where a sequence shows no end group, the ends are not given.
